Taken from: PubChem BioAssay AID1224828 (NIAID, 2016)
Screen: 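Find genes required for NF-kappaB p65 moving into the nucleus after LPS in mouse macrophages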 (primary screen). System: mouse RAW264.7 G9 macrophage reporter cells (GFP-p65, Tnf promoter-mCherry). Reagents: siRNA pool against mouse genes, 100 nM. Duration: 2 days siRNA transfection, then 40 min LPS before fixation. Challenge: LPS (Salmonella minnesota R595) at 10 ng/ml. Measured: 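Imaged p65 nuclear translocation ratio, normalised to the plate median, converted to robust z-scores and averaged across two replicates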. Direction: p65 translocation robust z-score: higher = more nuclear NF-kappaB p65 after LPS than the plate median; nuclear/cytoplasmic p65 ratio: higher = more nuclear NF-kappaB p65. Active means: 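Active if robust z is above 3.3 (negative regulators) or below -1.56, the Tlr4 control median (positive regulators); activity score 50 or more; control wells not called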. Meaning of the calls: active = hit (p65 shift raised or lowered); inactive = no clear change.
Here is a random part of about 17,000 reagents tested. In the full data, 762 (4.5%) are marked active. 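Active calls include both raised and lowered p65 entry, mostly lowered; wells with fewer than 50 cells lack a z-score.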 Raw values vary from plate to plate and are shown uncorrected. The numbers tell different reagents against one gene apart.

gene	pool no.	p65 translocation robust z-score	nuclear/cytoplasmic p65 ratio, rep 1	nuclear/cytoplasmic p65 ratio, rep 2	low cell count flag	outcome
Ccdc187 (coiled-coil domain containing 187)	1		1.36	1.12	fewer than 50 cells per well; well left out of scoring	inactive
Cct4 (chaperonin containing TCP1 subunit 4)	1	0.09	1.43	1.39	enough cells to score	inactive
Zfp952 (zinc finger protein 952)	1	-0.82	1.63	1.39	enough cells to score	inactive
Lcor (ligand dependent nuclear receptor corepressor)	1	-0.96	1.57	1.5	enough cells to score	inactive
Gip (gastric inhibitory polypeptide)	1	-0.75	1.33	1.28	enough cells to score	inactive
Pstpip2 (proline-serine-threonine phosphatase-interacting protein 2)	1	-0.96	1.22	1.35	enough cells to score	inactive
Pstpip2 (proline-serine-threonine phosphatase-interacting protein 2)	2	-0.48	1.5	1.29	enough cells to score	inactive
Fitm1 (fat storage-inducing transmembrane protein 1)	1	-0.78	1.32	1.45	enough cells to score	inactive
Tmsb10 (thymosin beta 10)	1		1.46	1.15	fewer than 50 cells per well; well left out of scoring	inactive
Tex2 (testis expressed gene 2)	1	1.15	1.47	1.36	enough cells to score	inactive
Cpsf3 (cleavage and polyadenylation specificity factor 3)	1	0.65	1.65	1.92	enough cells to score	inactive
Fbxl8 (F-box and leucine-rich repeat protein 8)	1	-1	1.39	1.38	enough cells to score	inactive
Srpx (sushi-repeat-containing protein)	1	-0.21	1.53	1.51	enough cells to score	inactive
Rnf6 (ring finger protein (C3H2C3 type) 6)	1	-0.36	1.52	1.6	enough cells to score	inactive
Perp (PERP, TP53 apoptosis effector)	1	0.81	1.5	1.57	enough cells to score	inactive
Sowahc (sosondowah ankyrin repeat domain family member C)	1	0.97	1.29	1.37	enough cells to score	inactive
Cfap20 (cilia and flagella associated protein 20)	1	-1.93	1.23	1.38	enough cells to score	active
Or5d40 (olfactory receptor family 5 subfamily D member 40)	1	-0.3	1.66	1.49	enough cells to score	inactive
4933434M16Rik (RIKEN cDNA 4933434M16 gene)	1	0.58	1.4	1.58	enough cells to score	inactive
Slc52a2	1	-0.65	1.39	1.51	enough cells to score	inactive
Dnai4 (dynein axonemal intermediate chain 4)	1	0.51	1.7	1.88	enough cells to score	inactive
Olfr100 (olfactory receptor 100)	1	-1.87	1.4	1.26	enough cells to score	active
2010106E10Rik (RIKEN cDNA 2010106E10 gene)	1		1.76	1.56	fewer than 50 cells per well; well left out of scoring	inactive
Tmem171 (transmembrane protein 171)	1		1.48	1.65	fewer than 50 cells per well; well left out of scoring	inactive
